## Primary screen of a compound library

Sequences of proteins named here, by UniProt entry; tags and fusion partners are left off. Residues count along the entry.
UniProt A4I591, 1-473: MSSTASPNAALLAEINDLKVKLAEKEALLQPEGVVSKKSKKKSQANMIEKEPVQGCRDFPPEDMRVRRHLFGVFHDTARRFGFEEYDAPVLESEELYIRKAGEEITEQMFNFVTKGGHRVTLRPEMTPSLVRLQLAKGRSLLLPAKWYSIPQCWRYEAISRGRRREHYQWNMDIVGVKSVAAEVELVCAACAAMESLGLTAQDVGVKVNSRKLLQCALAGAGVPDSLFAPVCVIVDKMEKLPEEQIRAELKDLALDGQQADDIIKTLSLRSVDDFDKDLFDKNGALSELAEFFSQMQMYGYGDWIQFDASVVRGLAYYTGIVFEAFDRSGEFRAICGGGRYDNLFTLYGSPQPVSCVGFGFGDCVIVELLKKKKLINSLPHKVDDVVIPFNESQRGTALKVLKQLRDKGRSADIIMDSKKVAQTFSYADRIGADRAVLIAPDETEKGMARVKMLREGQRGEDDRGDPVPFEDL
UniProt P9WFT3, whole entry: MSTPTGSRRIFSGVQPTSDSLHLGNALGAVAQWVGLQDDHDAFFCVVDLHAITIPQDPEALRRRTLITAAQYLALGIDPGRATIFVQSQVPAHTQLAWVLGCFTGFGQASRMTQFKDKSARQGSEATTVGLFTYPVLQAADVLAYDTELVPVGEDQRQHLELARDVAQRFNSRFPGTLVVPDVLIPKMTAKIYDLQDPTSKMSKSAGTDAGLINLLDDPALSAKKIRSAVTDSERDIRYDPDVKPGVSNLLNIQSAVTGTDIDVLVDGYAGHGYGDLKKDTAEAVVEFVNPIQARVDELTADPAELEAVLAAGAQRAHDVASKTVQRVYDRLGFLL

A: 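Histidine-tRNA ligase, Leishmania infantum (UniProt A4I591). Enzyme assay of histidyl-tRNA synthetase; the read-out is not stated. Tested at 30 µM. Direction is inferred from retests: higher values go with stronger inhibition. The assay is labelled LdHisRS but filed under L. infantum. Of about 69,000 compounds tested this way, about 410 (0.6%) reached 50% or more in at least one test.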
B: 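Tryptophan-tRNA ligase, Mycobacterium tuberculosis (UniProt P9WFT3). Enzyme assay of tryptophanyl-tRNA synthetase; the read-out is not stated. Concentration: 10 µM. Higher most likely means stronger inhibition; the record gives no direction and few retests gave an IC50. Of about 65,000 compounds tested this way, about 64 (0.098%) reached 50% or more in at least one test.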

Values are the deposited “Percent Effect”, in %. How 0% and 100% were set is not recorded. Most values in the screen are low, and negative values occur. Compounds were drawn at random from those tested, without regard to their results. A dash means the value is not listed here; it may have been measured.

structure,A,B
CCOc1ncccc1CNS(=O)(=O)c1ccc2c(c1)CCC2,7.292,-5.263
Cc1ccc(CN2CCC3(CC2)C(=O)N(CC(C)C)CCN3C)s1,17.43,-0.6634
NC(=O)CN1CCC(c2cncc(-c3cccc(Cl)c3)n2)CC1,4,-
CC(C)COCC(C)NC(=O)NCc1cccc(-n2cncn2)c1 (stereo unspecified),16.39,5.541
Cc1ccccc1N1CCN(CCS(=O)(=O)c2ccc(Br)cc2)CC1,18.57,6.498
O=C1c2cnc(N3CCCC3)nc2CN1CCc1ccc(Cl)cc1,28.4,-1.273
CC1(C)OC(=O)N(CCCOc2ccc(F)cc2)C1=O,8.434,1.377
O=C(COc1cccc(Br)c1)N1CCN(c2nccs2)CC1,16.5,-0.7105
COc1ccc(C(=O)Nc2ccccc2-c2ccc(=O)n(C)n2)nn1,10.43,-1.14
Cc1cnn(CC(C)NCc2ccc(C#N)cc2F)c1 (stereo unspecified),21.43,1.444
O=C(c1cc[nH]n1)N(Cc1ccccc1)CC1CCC1,6.452,2.436
COC(=O)c1cccc(S(=O)(=O)NCc2cccnc2N(C)C)c1,11.86,-3.897
CCNc1ncc2c(n1)CN(c1cccc(OC)c1)C2=O,17.24,-1.813
COc1cccc2c1N(CC(=O)Nc1ccc(Cl)cn1)CCC2,22.58,0.6734
N#Cc1ccc(CNCC2CCN(CCO)CC2)cc1,13.46,-7.199
Cc1cc(CN2CCN(S(C)(=O)=O)CC(C(=O)N(C)C)C2)no1 (stereo unspecified),16.49,-
CC(C)n1[nH]c(=O)c2c1NC(=O)CC2c1cccc(Br)c1 (stereo unspecified),18.18,-0.8653
N#Cc1ccccc1N1CCN(CCC(=O)N2CCOCC2)CC1,13.89,0
O=C(NC1CC1)C1(Cc2ccccc2-c2ccncc2)CCOCC1,2.069,-2.196
CCn1nc(C)c2nc(C(C)C)nc(N(C)Cc3ccco3)c21,25,-2.034
c1cncc(OCc2noc3c2CN(Cc2ccsc2)CC3)c1,17.95,-0.6916
CCCC(O)CN1CC(C)(C)CN(C(=O)CCc2ccccc2)CC1=O (stereo unspecified),4.082,-
Cc1nn(-c2ccccn2)c(C)c1[C@@H]1C=C[C@@H](NC(=O)NC(C)C)C1,47.22,-0.0753
COc1ccc2[nH]nc(CN3CCC(C(=O)N4CCCCC4)CC3)c2c1,8.602,-3.924
COc1ccc2c(C)c(C(=O)NC3CCN(S(C)(=O)=O)CC3)oc2c1,9.375,0.9372
Cc1cc(C)nc(C2CCCN2c2ccnc(C)n2)n1 (stereo unspecified),5.263,2.609
Cc1nc(S(=O)(=O)NCCC(=O)NCc2ccc(C#N)cc2)cn1C,9.649,3.631
Cc1cc(C(=O)N2CCNC(c3ccccc3)C2)c2ccc(F)cc2n1 (stereo unspecified),22.45,4.405
C1CC(CN2CCCCC2C2OCCO2)C1 (stereo unspecified),12.24,3.671
Cc1cc(CN2CCN(C(=O)C(C(C)C)n3cncn3)CC2)on1 (stereo unspecified),12.94,1.614
Cc1nnc(CN(C)CC(=O)N2CCCC(C(F)(F)F)C2)n1C (stereo unspecified),0,3.207
O=C([C@@H]1COC[C@H]2CN(C3CCOCC3)C[C@H]21)N1CCCCO1,9.434,11.65
CCCN(CCO)C(=O)c1cc(COc2ccc3c(c2)CCCC3)on1,-4,-0.4468
CCNc1ncc(C(=O)Nc2nnc(N3CCCCC3)[nH]2)s1,19.18,1.192
CC(C)COCC(NC(=O)c1cc[nH]n1)c1ccco1 (stereo unspecified),33.33,6.338
CCCc1nc(CN2CCCC2c2cnn(C)c2)cs1 (stereo unspecified),15.25,10.89
CNC(=O)CC1c2cccnc2C(=O)N1Cc1ccccc1 (stereo unspecified),6.186,-
Cc1cc(F)cc2c(N3CCS(=O)(=O)CC3)c(C#N)cnc12,4.505,0.9497
Cc1cc(C(F)(F)F)nc(CNC(=O)CCC2CCCN(C)C2)n1 (stereo unspecified),14.89,-2.728
Cc1nc(CN(CCS(C)(=O)=O)C(C)C)cs1,12.77,1.967
Cn1ccc(CN2CCC(CN3CCOCC3)CC2)cc1=O,20.51,2.669
COCCn1ccnc1C1CCCN(C(=O)CSCC2CC2)C1 (stereo unspecified),14.42,-0.9479
CC(C)Cn1c(=O)n(CCn2cc(Cl)cn2)c2cc(C(=O)O)cnc21,19.54,3.507
Cc1cccc(CN2C(=O)CCC23CCN(c2ccccn2)CC3)n1,13.76,-1.824
CN(CC1CC1)C(=O)CN(Cc1cccc(O)c1)C1CCC(O)CC1 (stereo unspecified),11.32,2.179
COc1ccc(OC2CCN(C(=O)c3ccc(C(C)=O)s3)CC2)cc1,9.302,-0.5747
Cc1cncc(C(=O)N2CCCC(C(=O)CCc3ccccc3)C2)c1 (stereo unspecified),11.54,-4.205
CC(=O)N(Cc1noc(C2CC2)n1)C1CCN(CC(=O)NC2CC2)C1 (stereo unspecified),9.821,1.541
O=C(Nc1cccnc1)Nc1cccc(CN2CCC(O)CC2)c1,6.452,-3.054
Cc1nc2ncc3c(=O)n(C)ccc3n2n1,21.74,3.099
CC(C)c1nccn1Cc1cc(C(=O)NCC(F)(F)F)n[nH]1,0,3.725
Cc1c(NC(=O)NC2CN3CCC2CC3)cccc1C(=O)N1CCCC1 (stereo unspecified),-7.692,-2.925
COc1ccccc1N1CCC(CNS(=O)(=O)c2c(C)nn(C)c2C)C1 (stereo unspecified),15.08,1.12
O=C1CC2(CCN(Cc3ncc[nH]3)CC2)CN1Cc1cc(F)cc(F)c1,19.66,2.573
COCC[C@]1(O)CCN(Cc2nc(C)c(C)s2)C[C@H]1C,17.2,5.917
Cn1ccnc1CN1CCOCC(Cc2ccccn2)C1 (stereo unspecified),2.857,1.25
Cc1oc(C(=O)O)cc1S(=O)(=O)Nc1ccccc1F,1.739,3.213
Cc1ccc(S(=O)(=O)NC(C)C#N)cc1Br (stereo unspecified),5.882,-1.685
O=C(c1ccccc1)N1CC(C(=O)N2CCOCC2)C2(CCOCC2)C1 (stereo unspecified),22.12,9.801
CC1(C)CN(Cc2csc(CS(C)(=O)=O)n2)Cc2ccccc21,7.692,-4.749
CCCn1nnnc1CSCc1cn2c(C)cccc2n1,6.4,-1.204
Cc1ncsc1C(=O)NC1CCN(CC(=O)NCc2ccccc2)CC1,22.73,-2.632
CC(=O)N1CCC2(CC1)CN(C(C)=O)CC21CCNC1=O (stereo unspecified),13.59,7.842
Cc1nnc(NCC2(c3ccccc3)CC2)c(C#N)c1C,9.615,2.554
CN1CCCCC1CCC(=O)NCCCn1nccc1C1CC1 (stereo unspecified),-1.266,-0.2987
O=C(CC1CCCCC1)N1C[C@H]2CC[C@@H]1CN(Cc1cccnc1)C2,9.677,0.503
COc1cnc(C2(O)CCN(C(=O)c3scnc3C)CC2)c(OC)n1,-13.04,-
CCCn1ncc(-c2ccnc(NC3CC(C)(C)NC(C)(C)C3)n2)c1C,-5.128,12.49
O=C1CC[C@H]2[C@@H](CCN2Cc2ccco2)N1,17.31,-6.105
CC1CCCCN1C(=O)Cn1cc(I)cn1 (stereo unspecified),14.75,-4.661
Cc1nc(C)c(C(=O)NCCOc2ccc(C(F)(F)F)cn2)o1,11.76,-8.424
CC(C)N1CCC2(CC1)CC(CC(N)=O)c1ccc(F)cc12 (stereo unspecified),18,-1.647
Cc1cnn(C2CN(CC(=O)NCC3(c4ccccc4)CC3)C2)c1,18.75,-1.125
CC(C)(C)CN1CCCC(c2nccnc2Nc2cnccn2)C1 (stereo unspecified),12.68,-4.823
Cc1ccc(CN2C[C@@H](OCc3csc(C)n3)[C@H]3COC[C@H]32)s1,20.97,3.303
Cn1ccnc1CN(Cc1ccccn1)Cc1ccccc1Cl,12.68,-2.649
CN1CC(=O)N(c2cccc(F)c2)CC12CCN(S(C)(=O)=O)C2 (stereo unspecified),15.04,2.703
CN1C(=O)CCCC12CCCN(C(=O)c1cc(F)cc(F)c1)C2 (stereo unspecified),19.27,-4.643
O=C(NCCN1CCCCC1=O)C1CCC(=O)N(C2CCCC2)C1 (stereo unspecified),3.03,-1.009
O=C(C[S+]([O-])Cc1c(Cl)cccc1Cl)N1CCc2sccc2C1 (stereo unspecified),23.53,-2.478
O=C([C@H]1C[C@H]2OCC[C@H]2N(C(=O)c2cnccn2)C1)N1CCCCO1,28.57,2.604

For reference, 9 entries once more:

structure	A	B
Cc1cncc(C(=O)N2CCCC(C(=O)CCc3ccccc3)C2)c1 (stereo unspecified)	11.54	-4.205
CC(=O)N(Cc1noc(C2CC2)n1)C1CCN(CC(=O)NC2CC2)C1 (stereo unspecified)	9.821	1.541
O=C(COc1cccc(Br)c1)N1CCN(c2nccs2)CC1	16.5	-0.7105
O=C1CC[C@H]2[C@@H](CCN2Cc2ccco2)N1	17.31	-6.105
CC(C)(C)CN1CCCC(c2nccnc2Nc2cnccn2)C1 (stereo unspecified)	12.68	-4.823
Cc1cc(C)nc(C2CCCN2c2ccnc(C)n2)n1 (stereo unspecified)	5.263	2.609
COCCn1ccnc1C1CCCN(C(=O)CSCC2CC2)C1 (stereo unspecified)	14.42	-0.9479
Cc1nc2ncc3c(=O)n(C)ccc3n2n1	21.74	3.099
CC1CCCCN1C(=O)Cn1cc(I)cn1 (stereo unspecified)	14.75	-4.661

Data taken from ChEMBL document CHEMBL3988442, “University of Dundee, Small-Polar-MMV Screening Library” (2021).